Values from PubChem BioAssay AID504808 (Drosophila RNAi Screening Center, 2011).

- Test: 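Fly genes required to hold E2F transcription in check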 (primary screen)
- System: Drosophila S2 cells
- Reagent: long dsRNA against Drosophila genes
- Detection: 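Firefly luciferase driven by E2F sites, normalised to Renilla luciferase on the same minimal promoter, measured by plate reader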
- Direction: E2F firefly: higher = more E2F reporter activity; Renilla normaliser: higher = more normaliser reporter signal
- Active means: 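a knock-down counted as active when the firefly/Renilla E2F signal rose above 50%, a threshold chosen arbitrarily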
The screen tested about 21,000 reagents; this is a random part of those that have a named target and a result. In the full data, 18 (0.084%) are marked active. 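Raw counts without plate normalisation, one of two replicates; the ratio scores behind the calls were not deposited.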 Unmarked entries are inactive. Reagents against one gene are numbered here. A plus sign joins genes that one reagent is predicted to hit. No sequences are given here. Not given: the amount of reagent, the time to read-out.

predicted target,reagent no.,"E2F firefly, rep 1","Renilla normaliser, rep 1"
CG10761,1,1.15e5,5776
OtopLb (Otopetrin-like b),1,88657,3797
Zip102B (Zinc/iron regulated transporter-related protein 102B),1,1.17e5,5159
Xbp1 (X box binding protein-1),1,50001,3757
Ire1 (Inositol-requiring enzyme-1),1,1.54e5,7423
CG44153,1,77563,3355
CG44153,2,1.40e5,5355
CG44153,3,1.58e5,4782
CG44153,4,1.57e5,5304
Sp7 (Serine protease 7),1,1.53e5,7603
CG1239,1,66050,3159
CG5302 (retired record),1,1.25e5,6012
CG5302 (retired record),2,1.19e5,6131
CG13359,1,1.28e5,6114
per (period),1,1.32e5,5666
aus (argus),1,78153,2600
aus (argus),2,83987,2610
aus (argus),3,65962,4222
Cul5 (Cullin 5),1,1.08e5,5882
CG1504,1,1.34e5,6069
Vps16A (Vacuolar protein sorting 16A),1,1.15e5,5485
CG43867,1,82581,2308
CG43867,2,1.25e5,5999
CG43867,3,61914,4408
CG43867,4,40573,3581
CG14673 (retired record),1,1.26e5,6390
CR18166 (pseudo),1,73226,2621
CR18166 (pseudo),2,69341,5942
Zfrp8 (Zinc finger protein RP-8),1,1.09e5,4764
Cdlc2 (Cytoplasmic dynein light chain 2),1,85719,3705
RpS20 (Ribosomal protein S20),1,74073,8183
pgc (polar granule component),1,92889,3320
Snx21 (Sorting nexin 21),1,94978,4070
CG9922,1,1.28e5,5123
LanB2 (Laminin B2),1,82916,4012
mus101 (mutagen-sensitive 101),1,1.24e5,5088
ine (inebriated),1,90109,3475
dpr15 (defective proboscis extension response 15),1,85122,2600
dpr15 (defective proboscis extension response 15),2,1.24e5,6396
dpr15 (defective proboscis extension response 15),3,1.51e5,6714
cdm (cadmus),1,67942,3060
Sms (Spermine synthase),1,1.24e5,7504
spz5 (spatzle 5),1,80244,3644
CG14265,1,1.13e5,5522
CG31219,1,1.40e5,8051
qtc (quick-to-court),1,98860,4114
qtc (quick-to-court),2,1.44e5,5058
CG1146,1,67450,2951
GATAe,1,55949,3024
CG17048,1,1.03e5,4331
ana (anachronism),1,3455,149
CG8180,1,73367,3348
CG8180,2,1.01e5,4545
Vps45 (Vacuolar protein sorting 45),1,1.54e5,6565
Hsp70Bb + Hsp70Bbb,1,1.46e5,7159
CG14434,1,43130,3596
Cngl (Cyclic nucleotide-gated ion channel-like),1,1.38e5,5551
CG9231,1,72290,3702
dap (dacapo),1,2129,222
CG13215,1,94916,4289
CG33263,1,1.29e5,6681
"beta4GalNAcTA (beta1,4-N-acetylgalactosaminyltransferase A)",1,44848,3345
corto,1,1.24e5,5528
CG11041,1,1.45e5,5343
MBD-R2,1,2.03e5,9055
Cpsf73 (Cleavage and polyadenylation specificity factor 73),1,1.31e5,5935
CG13558,1,97696,4497
eIF3l (eukaryotic translation initiation factor 3 subunit l),1,1.41e5,7653
CG14933 + CG42486,1,1.57e5,5900
Gp210 (Glycoprotein 210 kDa),1,1.20e5,4878
Gp210 (Glycoprotein 210 kDa),2,97354,3710
pk (prickle),1,1.34e5,4934
pk (prickle),2,1.77e5,5559
CG14535,1,1.53e5,4723
CG7824,1,1.24e5,6654
Asx (Additional sex combs),1,1.06e5,3939
Sh3beta,1,77704,3783
RhoGAP1A (Rho GTPase activating protein at 1A),1,1.39e5,6246
RhoGAP1A (Rho GTPase activating protein at 1A),2,1.35e5,6182
Serinc (Serine incorporator),1,79960,3964
Sec31 (Secretory 31),1,2748,216
timeout,1,86622,2687
timeout,2,96451,5674
timeout,3,1.01e5,5544
timeout,4,1.19e5,5597
timeout,5,1.15e5,6279

Laid out differently: results already given
{"predicted target": "beta4GalNAcTA (beta1,4-N-acetylgalactosaminyltransferase A)", "reagent no.": 1, "E2F firefly, rep 1": 44848, "Renilla normaliser, rep 1": 3345}
{"predicted target": "corto", "reagent no.": 1, "E2F firefly, rep 1": 1.24e5, "Renilla normaliser, rep 1": 5528}
{"predicted target": "CG11041", "reagent no.": 1, "E2F firefly, rep 1": 1.45e5, "Renilla normaliser, rep 1": 5343}
{"predicted target": "MBD-R2", "reagent no.": 1, "E2F firefly, rep 1": 2.03e5, "Renilla normaliser, rep 1": 9055}
